The source of these data is article PMC3052437.

Protein sequences, listed by entry. Tags and fused reporters are not part of them.
UniProt P37231: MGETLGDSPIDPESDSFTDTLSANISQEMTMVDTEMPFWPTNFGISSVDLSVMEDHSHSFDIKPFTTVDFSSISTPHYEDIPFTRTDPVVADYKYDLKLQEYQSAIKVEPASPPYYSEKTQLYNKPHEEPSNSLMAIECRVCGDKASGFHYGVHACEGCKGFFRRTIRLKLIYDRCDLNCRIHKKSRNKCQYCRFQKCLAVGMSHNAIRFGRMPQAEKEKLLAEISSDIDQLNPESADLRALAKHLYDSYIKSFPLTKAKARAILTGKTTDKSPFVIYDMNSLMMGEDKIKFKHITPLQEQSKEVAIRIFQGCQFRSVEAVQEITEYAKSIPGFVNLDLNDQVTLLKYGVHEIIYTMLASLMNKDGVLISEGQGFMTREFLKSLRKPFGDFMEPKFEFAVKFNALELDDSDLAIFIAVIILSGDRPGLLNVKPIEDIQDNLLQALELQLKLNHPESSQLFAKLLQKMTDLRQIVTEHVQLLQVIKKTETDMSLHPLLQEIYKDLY

This assay deals with T1, V5-STAT6 (UniProt P42226).
T1 sequence: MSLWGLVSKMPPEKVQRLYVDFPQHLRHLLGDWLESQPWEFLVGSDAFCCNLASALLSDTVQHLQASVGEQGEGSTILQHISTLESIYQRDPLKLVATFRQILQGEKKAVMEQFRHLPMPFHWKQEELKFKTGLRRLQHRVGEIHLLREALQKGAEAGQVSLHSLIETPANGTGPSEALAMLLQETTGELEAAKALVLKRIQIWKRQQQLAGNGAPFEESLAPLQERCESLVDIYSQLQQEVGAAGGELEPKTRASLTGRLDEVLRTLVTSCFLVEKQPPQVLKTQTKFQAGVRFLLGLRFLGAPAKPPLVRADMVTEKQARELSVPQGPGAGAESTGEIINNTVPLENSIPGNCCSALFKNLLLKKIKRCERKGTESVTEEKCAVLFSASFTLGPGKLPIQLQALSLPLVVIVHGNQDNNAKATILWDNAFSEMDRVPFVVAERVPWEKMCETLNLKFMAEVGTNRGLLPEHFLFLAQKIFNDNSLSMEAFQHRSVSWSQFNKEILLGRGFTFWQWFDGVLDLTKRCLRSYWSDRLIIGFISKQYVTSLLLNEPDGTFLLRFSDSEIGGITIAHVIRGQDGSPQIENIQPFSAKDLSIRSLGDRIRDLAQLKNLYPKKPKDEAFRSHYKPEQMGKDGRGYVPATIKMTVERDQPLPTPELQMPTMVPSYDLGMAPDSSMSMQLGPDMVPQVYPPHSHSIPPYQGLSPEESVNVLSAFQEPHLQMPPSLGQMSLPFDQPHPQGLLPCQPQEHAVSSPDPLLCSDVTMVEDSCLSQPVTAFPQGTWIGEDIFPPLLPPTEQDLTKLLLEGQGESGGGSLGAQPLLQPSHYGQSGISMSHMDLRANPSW
The assay can be described thus: co-IP; HEK293T cells transfected with V5-STAT6 and Flag-PPARg; whole cell lysates; immunoprecipitation with V5 or Flag M2 antibodies, then immunoblotting; treatments as indicated in the figure. Background: A western blot detects proteins with antibodies after separation by electrophoresis.

Results are given in words; binding and its absence hold for the method and conditions named. Binding seen in cells or lysates may run through a third protein. Some results given as binding are weak or reduced against the parent protein; the word gives no strength. Sequences can lack the tags named with a protein.

Take Flag-PPARγ (from UniProt P37231 1-505): the binding entry was “binds”.
